PubChem BioAssay AID1224830, NIAID – 2016
Aim: 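Regulators of TLR4 signalling towards TNF-alpha in macrophage-like cells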 (primary screen). Cell system: human THP-1 monocytic leukaemia cells, TNF dual-luciferase reporter clone, PMA-differentiated to macrophage-like cells. Reagent: siRNA pool against human genes, 50 nM. Time to read-out: LPS for 4 h, given about 3 days after siRNA transfection. Treatment: bacterial LPS (TLR4 ligand), 10 ng/ml. Measured: 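TNF firefly reporter luminescence divided by renilla, normalised to the plate median, then turned into a robust z-score for each replicate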. Direction: TNF reporter robust z-score: higher = stronger TNF reporter response to LPS. Call rule: 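a well is active when its z-score exceeds 2.8 or falls below -1.5; control wells carry no call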.
Shown is a random part of about 18,000 deposited reagents. About 2,900 of them (16%) count as active. 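Calls are made per well; low scores hint the gene aids the LPS response, high scores that it dampens it.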 Repeated entries: four replicate wells of each siRNA pool. Reagent sequences are not shown.

| gene | TNF reporter robust z-score | outcome |
| --- | --- | --- |
| XPNPEP1 (X-prolyl aminopeptidase 1) | 0.09 | inactive |
| XPNPEP1 (X-prolyl aminopeptidase 1) | -0.73 | inactive |
| XPNPEP1 (X-prolyl aminopeptidase 1) | -0.56 | inactive |
| XPNPEP1 (X-prolyl aminopeptidase 1) | 1.09 | inactive |
| LEMD2 (LEM domain nuclear envelope protein 2) | -0.04 | inactive |
| LEMD2 (LEM domain nuclear envelope protein 2) | 0.49 | inactive |
| LEMD2 (LEM domain nuclear envelope protein 2) | -0.13 | inactive |
| LEMD2 (LEM domain nuclear envelope protein 2) | 0.56 | inactive |
| C20orf96 (chromosome 20 open reading frame 96) | -1.04 | inactive |
| C20orf96 (chromosome 20 open reading frame 96) | -0.71 | inactive |
| C20orf96 (chromosome 20 open reading frame 96) | -0.8 | inactive |
| C20orf96 (chromosome 20 open reading frame 96) | -0.92 | inactive |
| UBE2I (ubiquitin conjugating enzyme E2 I) | -1.26 | inactive |
| UBE2I (ubiquitin conjugating enzyme E2 I) | -1.01 | inactive |
| UBE2I (ubiquitin conjugating enzyme E2 I) | -1.18 | inactive |
| UBE2I (ubiquitin conjugating enzyme E2 I) | -0.75 | inactive |
| ADAMTS9 (ADAM metallopeptidase with thrombospondin type 1 motif 9) | 1.24 | inactive |
| ADAMTS9 (ADAM metallopeptidase with thrombospondin type 1 motif 9) | 0.13 | inactive |
| ADAMTS9 (ADAM metallopeptidase with thrombospondin type 1 motif 9) | 0.52 | inactive |
| ADAMTS9 (ADAM metallopeptidase with thrombospondin type 1 motif 9) | 2.12 | inactive |
| CT83 (cancer/testis antigen 83) | -0.79 | inactive |
| CT83 (cancer/testis antigen 83) | -1.07 | inactive |
| CT83 (cancer/testis antigen 83) | -1.14 | inactive |
| CT83 (cancer/testis antigen 83) | -1.26 | inactive |
| USP47 (ubiquitin specific peptidase 47) | -0.34 | inactive |
| USP47 (ubiquitin specific peptidase 47) | -0.42 | inactive |
| USP47 (ubiquitin specific peptidase 47) | -0.43 | inactive |
| USP47 (ubiquitin specific peptidase 47) | 0.2 | inactive |
| DOP1B (DOP1 leucine zipper like protein B) | 0.06 | inactive |
| DOP1B (DOP1 leucine zipper like protein B) | 1.67 | inactive |
| DOP1B (DOP1 leucine zipper like protein B) | 0.23 | inactive |
| DOP1B (DOP1 leucine zipper like protein B) | 1.9 | inactive |
| KIT (KIT proto-oncogene, receptor tyrosine kinase) | -1.58 | active |
| KIT (KIT proto-oncogene, receptor tyrosine kinase) | 0.77 | inactive |
| KIT (KIT proto-oncogene, receptor tyrosine kinase) | -0.43 | inactive |
| KIT (KIT proto-oncogene, receptor tyrosine kinase) | -0.09 | inactive |
| ELP4 (elongator acetyltransferase complex subunit 4) | 0.68 | inactive |
| ELP4 (elongator acetyltransferase complex subunit 4) | 0.95 | inactive |
| ELP4 (elongator acetyltransferase complex subunit 4) | 0.25 | inactive |
| ELP4 (elongator acetyltransferase complex subunit 4) | 1.69 | inactive |
| ZBTB47 (zinc finger and BTB domain containing 47) | 1.17 | inactive |
| ZBTB47 (zinc finger and BTB domain containing 47) | 2.09 | inactive |
| ZBTB47 (zinc finger and BTB domain containing 47) | 0.72 | inactive |
| ZBTB47 (zinc finger and BTB domain containing 47) | 1.12 | inactive |
| ZNF496 (zinc finger protein 496) | -0.65 | inactive |
| ZNF496 (zinc finger protein 496) | 0.09 | inactive |
| ZNF496 (zinc finger protein 496) | 1.29 | inactive |
| ZNF496 (zinc finger protein 496) | 0.19 | inactive |
| KMT5A (lysine methyltransferase 5A) | -0.77 | inactive |
| KMT5A (lysine methyltransferase 5A) | -0.58 | inactive |
| KMT5A (lysine methyltransferase 5A) | -0.12 | inactive |
| TIGD5 (tigger transposable element derived 5) | -0.3 | inactive |
| TIGD5 (tigger transposable element derived 5) | -0.5 | inactive |
| TIGD5 (tigger transposable element derived 5) | -1.26 | inactive |
| TIGD5 (tigger transposable element derived 5) | -0.79 | inactive |
| RORA (RAR related orphan receptor A) | -1.41 | inactive |
| RORA (RAR related orphan receptor A) | -0.61 | inactive |
| RORA (RAR related orphan receptor A) | -0.75 | inactive |
| RORA (RAR related orphan receptor A) | -0.2 | inactive |
| KRTAP13-2 (keratin associated protein 13-2) | -0.17 | inactive |
| KRTAP13-2 (keratin associated protein 13-2) | 0.46 | inactive |
| KRTAP13-2 (keratin associated protein 13-2) | 1.74 | inactive |
| KRTAP13-2 (keratin associated protein 13-2) | 1.59 | inactive |
| CHMP4C (charged multivesicular body protein 4C) | -0.32 | inactive |
| CHMP4C (charged multivesicular body protein 4C) | 0.05 | inactive |
| CHMP4C (charged multivesicular body protein 4C) | -0.47 | inactive |
| CHMP4C (charged multivesicular body protein 4C) | 1.36 | inactive |
| CAVIN1 (caveolae associated protein 1) | 0 | inactive |
| CAVIN1 (caveolae associated protein 1) | 1.01 | inactive |
| CAVIN1 (caveolae associated protein 1) | -0.2 | inactive |
| CAVIN1 (caveolae associated protein 1) | -0.21 | inactive |
| CCDC88A (coiled-coil and HOOK domain protein 88A) | -1.22 | inactive |
| CCDC88A (coiled-coil and HOOK domain protein 88A) | -1.04 | inactive |
| CCDC88A (coiled-coil and HOOK domain protein 88A) | -1.24 | inactive |
| CCDC88A (coiled-coil and HOOK domain protein 88A) | -0.98 | inactive |
| XRN1 (5'-3' exoribonuclease 1) | -0.24 | inactive |
| XRN1 (5'-3' exoribonuclease 1) | 0.18 | inactive |
| XRN1 (5'-3' exoribonuclease 1) | 0.08 | inactive |
| XRN1 (5'-3' exoribonuclease 1) | -0.19 | inactive |
| BRD3 (bromodomain containing 3) | 2.07 | inactive |
| BRD3 (bromodomain containing 3) | 0.91 | inactive |
| BRD3 (bromodomain containing 3) | 2.88 | active |
| BRD3 (bromodomain containing 3) | 1.76 | inactive |
| GP1BA (glycoprotein Ib platelet subunit alpha) | -1.37 | inactive |
| GP1BA (glycoprotein Ib platelet subunit alpha) | -0.03 | inactive |
| GP1BA (glycoprotein Ib platelet subunit alpha) | -0.9 | inactive |
| GP1BA (glycoprotein Ib platelet subunit alpha) | -0.42 | inactive |
| TSPY3 (testis specific protein Y-linked 3) | -1.69 | active |
| TSPY3 (testis specific protein Y-linked 3) | 0.11 | inactive |
| TSPY3 (testis specific protein Y-linked 3) | -1.66 | active |
| TSPY3 (testis specific protein Y-linked 3) | -1.58 | active |
| MRM1 (mitochondrial rRNA methyltransferase 1) | 2.27 | inactive |
| MRM1 (mitochondrial rRNA methyltransferase 1) | 0.72 | inactive |
| MRM1 (mitochondrial rRNA methyltransferase 1) | 1.38 | inactive |
| MRM1 (mitochondrial rRNA methyltransferase 1) | 2.47 | inactive |
| PRPF18 (pre-mRNA processing factor 18) | 0 | inactive |
| PRPF18 (pre-mRNA processing factor 18) | 1.59 | inactive |
| PRPF18 (pre-mRNA processing factor 18) | 2.14 | inactive |
| PRPF18 (pre-mRNA processing factor 18) | 2.16 | inactive |
| RNLS (renalase, FAD dependent amine oxidase) | -0.23 | inactive |
| RNLS (renalase, FAD dependent amine oxidase) | -0.14 | inactive |
| RNLS (renalase, FAD dependent amine oxidase) | -0.7 | inactive |
| RNLS (renalase, FAD dependent amine oxidase) | -0.42 | inactive |
| ZNF132 (zinc finger protein 132) | -0.69 | inactive |
| ZNF132 (zinc finger protein 132) | -0.77 | inactive |
| ZNF132 (zinc finger protein 132) | -1.36 | inactive |
| ZNF132 (zinc finger protein 132) | -1.03 | inactive |
| TPPP2 (tubulin polymerization promoting protein family member 2) | -0.87 | inactive |
| TPPP2 (tubulin polymerization promoting protein family member 2) | -0.7 | inactive |
| TPPP2 (tubulin polymerization promoting protein family member 2) | 0.01 | inactive |
| TPPP2 (tubulin polymerization promoting protein family member 2) | -0.4 | inactive |
| KLRK1 (killer cell lectin like receptor K1) | -0.55 | inactive |
| KLRK1 (killer cell lectin like receptor K1) | -0.47 | inactive |
| KLRK1 (killer cell lectin like receptor K1) | -0.48 | inactive |
| KLRK1 (killer cell lectin like receptor K1) | -0.02 | inactive |
| CD84 (CD84 molecule) | 2.22 | inactive |
| CD84 (CD84 molecule) | 0.67 | inactive |
| CD84 (CD84 molecule) | 0.43 | inactive |
| CD84 (CD84 molecule) | -1.18 | inactive |
| CALHM1 (calcium homeostasis modulator 1) | 0.18 | inactive |
| CALHM1 (calcium homeostasis modulator 1) | 1.49 | inactive |
| CALHM1 (calcium homeostasis modulator 1) | 0.23 | inactive |
| CALHM1 (calcium homeostasis modulator 1) | 0.84 | inactive |
| ZNF510 (zinc finger protein 510) | – | inactive |
| ZNF510 (zinc finger protein 510) | -0.66 | inactive |
| ZNF510 (zinc finger protein 510) | -0.98 | inactive |
| ZNF510 (zinc finger protein 510) | -0.19 | inactive |
| ZNF510 (zinc finger protein 510) | -0.41 | inactive |
| SCN1A (sodium voltage-gated channel alpha subunit 1) | 1.23 | inactive |
| SCN1A (sodium voltage-gated channel alpha subunit 1) | 3.4 | active |
| SCN1A (sodium voltage-gated channel alpha subunit 1) | 0.43 | inactive |
| SCN1A (sodium voltage-gated channel alpha subunit 1) | 0.34 | inactive |
| MPDZ (multiple PDZ domain crumbs cell polarity complex component) | -1.22 | inactive |
| MPDZ (multiple PDZ domain crumbs cell polarity complex component) | -1.19 | inactive |
| MPDZ (multiple PDZ domain crumbs cell polarity complex component) | -1.29 | inactive |
| MPDZ (multiple PDZ domain crumbs cell polarity complex component) | -1.48 | inactive |
| DNAL1 (dynein axonemal light chain 1) | 0.31 | inactive |
| DNAL1 (dynein axonemal light chain 1) | 0.33 | inactive |
| DNAL1 (dynein axonemal light chain 1) | 0.29 | inactive |
| DNAL1 (dynein axonemal light chain 1) | 0.44 | inactive |

Active calls, among the entries above:
| gene | TNF reporter robust z-score | outcome |
| --- | --- | --- |
| KIT (KIT proto-oncogene, receptor tyrosine kinase) | -1.58 | active |
| BRD3 (bromodomain containing 3) | 2.88 | active |
| TSPY3 (testis specific protein Y-linked 3) | -1.69 | active |
| TSPY3 (testis specific protein Y-linked 3) | -1.66 | active |
| TSPY3 (testis specific protein Y-linked 3) | -1.58 | active |
| SCN1A (sodium voltage-gated channel alpha subunit 1) | 3.4 | active |
